Laboratory results from publication PMC3307773.

Sequences of proteins named here, by UniProt entry; tags and fusion partners are left off.
UniProt Q12824: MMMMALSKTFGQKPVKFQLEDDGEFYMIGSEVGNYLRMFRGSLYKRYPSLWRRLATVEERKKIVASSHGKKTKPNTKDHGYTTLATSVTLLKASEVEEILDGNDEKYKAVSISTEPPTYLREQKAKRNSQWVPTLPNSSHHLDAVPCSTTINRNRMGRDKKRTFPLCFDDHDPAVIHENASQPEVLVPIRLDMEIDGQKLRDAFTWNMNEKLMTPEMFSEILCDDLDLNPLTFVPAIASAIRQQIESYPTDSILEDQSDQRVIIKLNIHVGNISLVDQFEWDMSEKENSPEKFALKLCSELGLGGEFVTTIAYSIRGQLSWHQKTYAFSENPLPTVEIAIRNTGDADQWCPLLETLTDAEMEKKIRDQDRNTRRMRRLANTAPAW
UniProt Q92785: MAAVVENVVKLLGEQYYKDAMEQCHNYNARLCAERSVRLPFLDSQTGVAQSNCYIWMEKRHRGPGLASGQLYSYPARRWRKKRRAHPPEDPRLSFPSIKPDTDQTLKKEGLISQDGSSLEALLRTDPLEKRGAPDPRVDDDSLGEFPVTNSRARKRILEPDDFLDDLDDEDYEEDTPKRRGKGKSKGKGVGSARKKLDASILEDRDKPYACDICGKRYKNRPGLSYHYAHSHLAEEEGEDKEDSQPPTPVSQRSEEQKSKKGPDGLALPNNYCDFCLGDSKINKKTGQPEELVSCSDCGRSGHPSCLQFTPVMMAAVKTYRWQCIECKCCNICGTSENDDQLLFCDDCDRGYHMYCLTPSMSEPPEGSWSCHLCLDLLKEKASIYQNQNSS

Columns and labels:
Test in all cases: affinity purification with mass spectrometry; tandem affinity purification: whole cell extracts of stable Hek293 clones on IgG sepharose, TEV cleavage, pre-clearing with protein A beads, immunoprecipitation with anti-MYC (PHF10: anti-TY1), peptide elution, SDS-PAGE, silver stain, in-gel trypsin digest, nano-LC FT mass spectrometry
BCL7A^TAP (human) = target: BCL7A^TAP (human)
BCL7C^TAP (human) = BCL7C^TAP (human) (UniProt Q8WUZ0)
SS18^TAP (human) = target: SS18^TAP (human)
PHF10^TAP (human) = target: PHF10^TAP (human)
INI1^TAP (human) = INI1^TAP (human) (UniProt Q12824)
DPF2^TAP (human) = DPF2^TAP (human) (UniProt Q92785)

Measured: binding

B1: BAF45A (protein, UniProt Q8WUB8 1-498)
chain: MAAAAGPGAALSPRPCDSDPATPGAQSPKDDNEDNSNDGTQPSKRRRMGSGDSSRSCETSSQDLGFSYYPAENLIEYKWPPDETGEYYMLQEQVSEYLGVTSFKRKYPDLERRDLSHKEKLYLRELNVITETQCTLGLTALRSDEVIDLMIKEYPAKHAEYSVILQEKERQRITDHYKEYSQMQQQNTQKVEASKVPEYIKKAAKKAAEFNSNLNRERMEERRAYFDLQTHVIQVPQGKYKVLPTERTKVSSYPVALIPGQFQEYYKRYSPDELRYLPLNTALYEPPLDPELPALDSDGDSDDGEDGRGDEKRKNKGTSDSSSGNVSEGESPPDSQEDSFQGRQKSKDKAATPRKDGPKRSVLSKSVPGYKPKVIPNAICGICLKGKESNKKGKAESLIHCSQCENSGHPSCLDMTMELVSMIKTYPWQCMECKTCIICGQPHHEEEMMFCDMCDRGYHTFCVGLGAIPSGRWICDCCQRAPPTPRKVGRRGKNSKEG
no binding: BCL7A^TAP (human) | BCL7C^TAP (human)

B2: RBM14 (protein, UniProt Q96PK6 1-669)
chain: MKIFVGNVDGADTTPEELAALFAPYGTVMSCAVMKQFAFVHMRENAGALRAIEALHGHELRPGRALVVEMSRPRPLNTWKIFVGNVSAACTSQELRSLFERRGRVIECDVVKDYAFVHMEKEADAKAAIAQLNGKEVKGKRINVELSTKGQKKGPGLAVQSGDKTKKPGAGDTAFPGTGGFSATFDYQQAFGNSTGGFDGQARQPTPPFFGRDRSPLRRSPPRASYVAPLTAQPATYRAQPSVSLGAAYRAQPSASLGVGYRTQPMTAQAASYRAQPSVSLGAPYRGQLASPSSQSAAASSLGPYGGAQPSASALSSYGGQAAAASSLNSYGAQGSSLASYGNQPSSYGAQAASSYGVRAAASSYNTQGAASSLGSYGAQAASYGAQSAASSLAYGAQAASYNAQPSASYNAQSAPYAAQQAASYSSQPAAYVAQPATAAAYASQPAAYAAQATTPMAGSYGAQPVVQTQLNSYGAQASMGLSGSYGAQSAAAATGSYGAAAAYGAQPSATLAAPYRTQSSASLAASYAAQQHPQAAASYRGQPGNAYDGAGQPSAAYLSMSQGAVANANSTPPPYERTRLSPPRASYDDPYKKAVAMSKRYGSDRRLAELSDYRRLSESQLSFRRSPTKSSLDYRRLPDAHSDYARYSGSYNDYLRAAQMHSGYQRRM
no binding: SS18^TAP (human)

B3: MYBBP1A (protein, UniProt Q9BQG0 1-1328)
chain: MESRDPAQPMSPGEATQSGARPADRYGLLKHSREFLDFFWDIAKPEQETRLAATEKLLEYLRGRPKGSEMKYALKRLITGLGVGRETARPCYSLALAQLLQSFEDLPLCSILQQIQEKYDLHQVKKAMLRPALFANLFGVLALFQSGRLVKDQEALMKSVKLLQALAQYQNHLQEQPRKALVDILSEVSKATLQEILPEVLKADLNIILSSPEQLELFLLAQQKVPSKLKKLVGSVNLFSDENVPRLVNVLKMAASSVKKDRKLPAIALDLLRLALKEDKFPRFWKEVVEQGLLKMQFWPASYLCFRLLGAALPLLTKEQLHLVMQGDVIRHYGEHVCTAKLPKQFKFAPEMDDYVGTFLEGCQDDPERQLAVLVAFSSVTNQGLPVTPTFWRVVRFLSPPALQGYVAWLRAMFLQPDLDSLVDFSTNNQKKAQDSSLHMPERAVFRLRKWIIFRLVSIVDSLHLEMEEALTEQVARFCLFHSFFVTKKPTSQIPETKHPFSFPLENQAREAVSSAFFSLLQTLSTQFKQAPGQTQGGQPWTYHLVQFADLLLNHSHNVTTVTPFTAQQRQAWDRMLQTLKELEAHSAEARAAAFQHLLLLVGIHLLKSPAESCDLLGDIQTCIRKSLGEKPRRSRTKTIDPQEPPWVEVLVEILLALLAQPSHLMRQVARSVFGHICSHLTPRALQLILDVLNPETSEDENDRVVVTDDSDERRLKGAEDKSEEGEDNRSSESEEESEGEESEEEERDGDVDQGFREQLMTVLQAGKALGGEDSENEEELGDEAMMALDQSLASLFAEQKLRIQARRDEKNKLQKEKALRRDFQIRVLDLVEVLVTKQPENALVLELLEPLLSIIRRSLRSSSSKQEQDLLHKTARIFTHHLCRARRYCHDLGERAGALHAQVERLVQQAGRQPDSPTALYHFNASLYLLRVLKGNTAEGCVHETQEKQKAGTDPSHMPTGPQAASCLDLNLVTRVYSTALSSFLTKRNSPLTVPMFLSLFSRHPVLCQSLLPILVQHITGPVRPRHQACLLLQKTLSMREVRSCFEDPEWKQLMGQVLAKVTENLRVLGEAQTKAQHQQALSSLELLNVLFRTCKHEKLTLDLTVLLGVLQGQQQSLQQGAHSTGSSRLHDLYWQAMKTLGVQRPKLEKKDAKEIPSATQSPISKKRKKKGFLPETKKRKKRKSEDGTPAEDGTPAATGGSQPPSMGRKKRNRTKAKVPAQANGTPTTKSPAPGAPTRSPSTPAKSPKLQKKNQKPSQVNGAPGSPTEPAGQKQHQKALPKKGVLGKSPLSALARKKARLSLVIRSPSLLQSGAKKKAQVRKAGKP
no binding: all assays above

No constants are given. Whether binding was seen depends on the method and setting. In cells and extracts the contact can be indirect. Here binding means that the protein was enriched with, or labelled near, the bait; the list need not be complete. No binding means not detected with the bait.
